Test results taken from patent publication US6624144B1, “Matrix metalloproteinase inhibitors and down-regulators” (CTT Cancer Targeting Technologies Oy, priority 1998, dated 2003).

Sequences of proteins named here, by UniProt entry; tags and fusion partners are left off. A change or cut given only in a name is not applied to a line headed by its entry.
UniProt P14780: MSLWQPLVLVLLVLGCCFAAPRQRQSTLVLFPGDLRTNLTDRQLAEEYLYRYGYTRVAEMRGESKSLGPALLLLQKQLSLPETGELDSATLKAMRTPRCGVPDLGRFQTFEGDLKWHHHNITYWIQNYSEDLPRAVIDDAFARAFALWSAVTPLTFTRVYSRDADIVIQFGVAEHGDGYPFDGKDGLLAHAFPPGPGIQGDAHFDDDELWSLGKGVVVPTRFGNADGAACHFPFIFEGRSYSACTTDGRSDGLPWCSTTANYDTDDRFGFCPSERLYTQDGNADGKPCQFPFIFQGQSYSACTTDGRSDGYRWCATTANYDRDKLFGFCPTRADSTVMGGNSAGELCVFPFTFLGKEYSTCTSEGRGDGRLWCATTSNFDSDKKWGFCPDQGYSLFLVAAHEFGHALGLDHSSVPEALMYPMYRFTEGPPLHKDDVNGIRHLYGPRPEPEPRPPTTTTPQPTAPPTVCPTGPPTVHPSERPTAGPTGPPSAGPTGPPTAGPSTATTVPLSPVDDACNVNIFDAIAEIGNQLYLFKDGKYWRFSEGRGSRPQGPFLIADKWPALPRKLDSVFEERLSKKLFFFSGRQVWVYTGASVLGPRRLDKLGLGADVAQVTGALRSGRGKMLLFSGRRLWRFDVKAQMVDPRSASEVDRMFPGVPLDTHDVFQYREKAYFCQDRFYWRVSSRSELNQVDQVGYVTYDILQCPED

B1: phage clone displaying CSLHWGFWWC (from the CX9 library) (peptide)
peptide: CSLHWGFWWC
notes: not shown: phage coat protein to which the peptide is fused

Biological target: T1, APMA-activated MMP-9 (human, UniProt P14780 94-707)
Assay: phage panning on APMA-activated MMP-9 coated on wells; binding of each clone verified by attachment assay (Eu-labelled anti-M13)

Q: How did the binding turn out when CRRHWGFEFC (peptide, not shown: large carriers) was run?
A: binds

Q: Which binding does the source give for CTTHWGFTLC (peptide, not shown: large carriers) here?
A: binds

Q: For B1, which binding is on record?
A: binds

Biological target: T1, APMA-activated MMP-9
Assay: phage attachment assay on MMP-9-coated wells

Q: With CRRHWGFEFC (peptide, not shown: large carriers) as the binder, how does the binding read?
A: binds

Q: Which binding does the source give for CTTHWGFTLC (peptide, not shown: large carriers) here?
A: binds

Q: Which binding does the source give for B1 here?
A: binds

No constants are given. Whether binding was seen depends on the method and setting. Binding can be weak; no strength is given.
